In all, about 33,000 sequences were measured (“E-score (-0.5 to 0.5)”: median about -0.016, highest 2% from about 0.3 on). This is one part of the list.
target: T1, Yer184c (UniProt P39961); test: PBM E-score (8-mer binding enrichment) (E-score (-0.5 to 0.5)); higher = stronger / more preferred TF binding; details: protein concentration: 100 nM; construct: GST-full length
T1 sequence: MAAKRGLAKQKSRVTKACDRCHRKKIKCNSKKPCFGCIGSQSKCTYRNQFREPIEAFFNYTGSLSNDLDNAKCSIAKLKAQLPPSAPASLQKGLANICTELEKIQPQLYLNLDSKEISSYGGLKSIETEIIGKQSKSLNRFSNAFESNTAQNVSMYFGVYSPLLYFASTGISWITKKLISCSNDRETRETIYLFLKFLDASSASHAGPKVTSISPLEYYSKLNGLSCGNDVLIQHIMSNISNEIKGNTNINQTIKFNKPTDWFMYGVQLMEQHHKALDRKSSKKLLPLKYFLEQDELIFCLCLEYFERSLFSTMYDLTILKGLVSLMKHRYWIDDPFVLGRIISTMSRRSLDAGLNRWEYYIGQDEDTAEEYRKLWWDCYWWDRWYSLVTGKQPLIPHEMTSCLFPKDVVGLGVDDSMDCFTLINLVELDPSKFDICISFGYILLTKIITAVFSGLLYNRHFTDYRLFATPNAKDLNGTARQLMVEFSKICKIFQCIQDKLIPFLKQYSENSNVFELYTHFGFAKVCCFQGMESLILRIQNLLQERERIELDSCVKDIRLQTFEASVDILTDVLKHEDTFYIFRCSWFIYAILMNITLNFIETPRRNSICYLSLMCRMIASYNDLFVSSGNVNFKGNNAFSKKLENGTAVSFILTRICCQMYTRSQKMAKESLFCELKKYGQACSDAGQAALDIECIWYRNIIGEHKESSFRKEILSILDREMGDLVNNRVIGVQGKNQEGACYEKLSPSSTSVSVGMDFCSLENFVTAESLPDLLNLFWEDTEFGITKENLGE
In short: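 Each ungapped eight-base word and its reverse complement, pooled, received an E-score from the Universal PBM Analysis Suite. Underlying scans, normalised with masliner, recorded fluorescent anti-GST bound to GST-tagged yeast transcription factors. These were applied at about 100-200 nM to universal all-10-mer Agilent arrays double-stranded by primer extension.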

Sequence	PBM E-score
GCCTGAGC	-0.144
ACGTGCAC	-0.186
ACTACGGG	-0.0246
GTGGCAAA	-0.0971
ATGGGGGG	-0.272
GATATTAA	0.282
AGCGAGCG	-0.0336
GATCTTAC	-0.0791
GACACGTC	-0.215
CTTCAAGA	0.171
AACTTTAG	0.127
CGAGGCGA	-0.124
AGCCCTCC	-0.201
AATACACG	0.0157
AGGCGGAC	0.0942
CGACATGC	0.0106
AGTTACGA	0.107
GCTGAAGC	-0.0318
CTCTCTTC	-0.152
AAGCTCAA	-0.122
ACTGGGCT	-0.237
AGTAATTG	0.0488
GTTAAGGA	0.0993
AGACTGAC	-0.118
CTTGCCTA	-0.211

Sequence	PBM E-score
ATGTATAG	-0.0326
CTGCGTCA	-0.207
CACCGGCA	0.287
AGTTCGTC	0.111
ATTGCCTA	-0.224
CGCGTCCC	-0.0841
AGGCTTCG	-0.0451
ACGCTCCG	-0.0533
GATCTTAA	0.0973
GCACGCGC	-0.141
ACGAGATC	-0.0526
CATCTCAG	-0.0799
CATGCAAA	0.0269
ACGACACC	-0.116
CAGCTGCG	-0.0751
ACCGTAGA	0.0305
CTATCGAA	-0.0803
AACCACCG	0.0415
ACGCGGAA	0.235
GTACTTCA	0.17
AGCACTCA	-0.0613
GACATTTA	-0.141
CATCATCA	0.103
AAGGGCGG	-0.189
CGTACACG	-0.13

Sequence	PBM E-score
GGCCAAAA	0.12
AGATGCGG	0.173
CATAACAC	0.0203
CACCATAG	-0.188
CCAACCTA	-0.053
CGACGAAA	0.134
CGGTCTGC	0.102
AATTCCAT	0.0965
ATTGTCCC	-0.0916
GATAACCC	-0.0872
GACTTGGA	-0.218
CGTTGGAC	-0.266
ACGGTGGC	-0.188
AAAGAAGA	0.0715
CCGGTATC	0.118
AACGCAGG	-0.11
ACCCGGTG	-0.0966
CAAATGGC	-0.0869
ACGATGAA	0.0109
AAAACGCA	0.0774
ACATTTGC	-0.0277
ACAGAATG	0.0519
ACAACCCG	0.0761
GGCCGCTA	0.00054
ATAGTATC	0.232

Sequence	PBM E-score
AATGGACC	0.124
AGCAAGTA	0.0211
ACCTGATG	-0.132
CTGAGGAA	-0.105
CTGCTATC	0.109
GGTCTTGA	-0.0168
AGGGTTAA	-0.0712
AATTCGGG	0.103
AAAGCCAG	-0.123
TGACTTAA	-0.0415
ACACAAGC	0.0554
ACACTACT	0.0784
CGAATCCC	0.154
AAATTCAA	0.0286
CATCCTAA	0.102
CATGACAA	0.02
GAGAATAC	0.233
CCGCATGA	0.0346
AAGCCGCG	0.21
CCCCGTCC	-0.328
CAGCCAGG	-0.155
CCTCTAGC	-0.306
ACGCCATA	-0.0867
CTTTGTAC	-0.0256
ATACCCAT	-0.0126

Sequence	PBM E-score
ACTGCCAG	0.014
GGTCTTAA	-0.104
AACACGTG	0.032
CTAGGCCA	-0.25
TCTTGAAA	0.254
AGAGAAAC	0.118
CCAATGCA	-0.119
GTAAACGA	0.0565
GCGAGAAA	-0.0014
AACCGGCC	0.318
GTGACTGA	0.0207
AGAACCCC	-0.192
TAACGTCA	0.087
CTGGGGCA	-0.335
AAGGCGCA	0.00578
CCACCTCG	-0.196
AAAAGTAA	0.207
ACTGCCTA	-0.179
CGATAGCC	-0.00107
CCGAAAGG	0.166
CACGACGG	0.0919
ACATCCAG	-0.12
AGGTGAAT	0.0437
AACTTCAT	0.072
GGGATTCA	-0.0361

In another format: results already given
AAAAGTAA
  PBM E-score = 0.207
ACTGCCTA
  PBM E-score = -0.179
CGATAGCC
  PBM E-score = -0.00107
CCGAAAGG
  PBM E-score = 0.166

Further entries follow.

Sequence	PBM E-score
TGTATGAA	0.0892
CCTGTTCG	0.0266
CTCGTATA	-0.14
GAGGGGCA	-0.314
GGAAGGTA	-0.0117
GAGTAACC	0.14
CAATGAGG	-0.267
AGTGCTAT	-0.299
CAATAGGC	-0.067
CTGTATGC	-0.0183
GAAAGATC	-0.0718
GGGGGGAA	-0.322
AGCCCCCG	-0.236
ACAAGATA	0.0427
CGCCAACG	-0.0725
GGACGGAA	0.0833
GCAGCGAC	-0.128
GGTTGCCA	0.0176
ATGACTAC	-0.234
CTAAGCGA	-0.0513
GCGCAGCA	-0.243
GCTCCTAC	-0.0782
CCAGTAAG	-0.0131
CATGTCGC	-0.196
AGCTAGGC	-0.177

Sequence	PBM E-score
ACGTCCCA	-0.316
AGGGTAGA	-0.319
ACTGCGAA	-0.214
GGTACGGA	0.114
ACGCTTTG	-0.0397
GCTATCCC	-0.16
AAGCAAAT	-0.0534
AGGACCAG	-0.205
ATCACGAG	-0.208
CAGCCTAG	-0.0522
AGCGTAAG	-0.135
ATTGAACG	0.129
ATCGTTGC	-0.111
CTGGTAAA	-0.0435
ACTGGCGC	-0.00584
CCCTTCTA	-0.368
GGCACAGA	0.0481
AGCCGCCT	-0.0288
CGCGGACG	0.0226
ACTCTGAT	0.0231
ACATTCCG	0.15
GACGGCGA	-0.034
AACGAAGT	-0.0531
AAGCGAAA	-0.0557
ACCGTGGC	-0.148

Sequence	PBM E-score
ATGATGAC	-0.0685
AATCAAAG	0.113
AACACATG	-0.0495
CTCAGCAA	0.147
CAGGGCTA	-0.266
AGTCTATA	0.00985
AATTAAAG	0.135
CCACTGTC	-0.209
AGTTAAAG	0.0577
CGCTTCTA	-0.0336
TGCTAGCA	0.101
GCACACTA	-0.00438
CCCGAAGG	-0.119
GCGTTTAA	0.0121
CCGCCTTC	-0.102
AAGTGCGA	-0.174
CCAGGAAA	0.1
AGAACGCG	0.0697
CGCGCGAA	0.115
ACCATCTG	-0.319
CCTTCCTA	-0.339
AATATGGA	-0.0254
CACCCCGC	0.0453
ATACAGCC	-0.0921
ACGCACCT	-0.157

Sequence	PBM E-score
CTTGTGAC	-0.0813
CCATACCA	-0.145
ATGGACCG	0.0524
ATTGAGGC	0.0358
CATGGTTC	0.128
AGCTCAGA	-0.113
CAGGTTCC	-0.0812
GGTCTTAC	-0.0573
ACTTGGCC	-0.133
CGCCTTCA	-0.266
AACTGGAA	-0.0554
CCGCTTGC	0.00247
CATCAATC	-0.0552
AGTGTGTG	-0.0372
GAGGAACC	0.088
CGGGCAGA	0.17
CACTCAAA	0.00698
GAACAACA	0.163
AGAAGACG	0.149

Reprinted from the entries so far (two entries):
Sequence	PBM E-score
AACTGGAA	-0.0554
CCGCTTGC	0.00247

Looked up above.
AGCTAGGC – PBM E-score: -0.177
CATAACAC – PBM E-score: 0.0203

— the supplement of paper PMC3334620
